# PubChem BioAssay AID1508597 – Cure First | 2020
# Screen: 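Survival screen with siRNA in ovarian cancer cells derived from patients, with or without rucaparib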 (primary screen)
# Cell system: human ovarian carcinoma lines grown from tumours: OCI-P5x (papillary serous) and OCI-C5x (clear cell)
# Knock-down reagent: siRNA pool against human genes, 1.25 pmol siRNA per well
# Duration: 72 h or 96 h, depending on the cell culture
# Treatment: rucaparib 20 µM (about IC30) or vehicle, present until read-out
# Measured: 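ATP luminescence measured at 72 or 96 h according to the culture, then normalised and expressed as percent viability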
# Direction: viability, normalised: higher = more viable cells remaining
# Rule for the call: 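a well counts as a hit if its normalised viability is under 80 percent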
# Calls: active = viability under 80%; inactive = viability 80% or more
# The whole screen tested about 2,100 reagents; below is a random part of them. 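Calls flag viability under 80% in either arm, not effects specific to rucaparib; the reference for percent is not stated.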 The record does not give: the 100% reference.
gene,rucaparib or vehicle,cell line,technical replicate,"viability, normalised (%)",outcome
DSCC1,Rucaparib,OCI-C5x (clear cell),1,78.1,active
DSCC1,Rucaparib,OCI-C5x (clear cell),2,62.2,active
DSCC1,Rucaparib,OCI-C5x (clear cell),3,60.8,active
DSCC1,Rucaparib,OCI-P5x (serous),1,96.2,inactive
DSCC1,Rucaparib,OCI-P5x (serous),2,97.4,inactive
DSCC1,Rucaparib,OCI-P5x (serous),3,98.9,inactive
DSCC1,Vehicle,OCI-C5x (clear cell),1,77.5,active
DSCC1,Vehicle,OCI-C5x (clear cell),2,71.8,active
DSCC1,Vehicle,OCI-C5x (clear cell),3,70.7,active
DSCC1,Vehicle,OCI-P5x (serous),1,97,inactive
DSCC1,Vehicle,OCI-P5x (serous),2,110,inactive
DSCC1,Vehicle,OCI-P5x (serous),3,111,inactive
TKFC (triokinase and FMN cyclase),Rucaparib,OCI-C5x (clear cell),1,32.1,active
TKFC (triokinase and FMN cyclase),Rucaparib,OCI-C5x (clear cell),2,23.2,active
TKFC (triokinase and FMN cyclase),Rucaparib,OCI-C5x (clear cell),3,22.2,active
TKFC (triokinase and FMN cyclase),Rucaparib,OCI-P5x (serous),1,80.2,inactive
TKFC (triokinase and FMN cyclase),Rucaparib,OCI-P5x (serous),2,63.3,active
TKFC (triokinase and FMN cyclase),Rucaparib,OCI-P5x (serous),3,70,active
TKFC (triokinase and FMN cyclase),Vehicle,OCI-C5x (clear cell),1,26.9,active
TKFC (triokinase and FMN cyclase),Vehicle,OCI-C5x (clear cell),2,25.3,active
TKFC (triokinase and FMN cyclase),Vehicle,OCI-C5x (clear cell),3,24.3,active
TKFC (triokinase and FMN cyclase),Vehicle,OCI-P5x (serous),1,67.9,active
TKFC (triokinase and FMN cyclase),Vehicle,OCI-P5x (serous),2,46.1,active
TKFC (triokinase and FMN cyclase),Vehicle,OCI-P5x (serous),3,52.4,active
PRDM6 (PR/SET domain 6),Rucaparib,OCI-C5x (clear cell),1,61.2,active
PRDM6 (PR/SET domain 6),Rucaparib,OCI-C5x (clear cell),2,43.3,active
PRDM6 (PR/SET domain 6),Rucaparib,OCI-C5x (clear cell),3,46.5,active
PRDM6 (PR/SET domain 6),Rucaparib,OCI-P5x (serous),1,32.2,active
PRDM6 (PR/SET domain 6),Rucaparib,OCI-P5x (serous),2,56.1,active
PRDM6 (PR/SET domain 6),Rucaparib,OCI-P5x (serous),3,44.9,active
PRDM6 (PR/SET domain 6),Vehicle,OCI-C5x (clear cell),1,53.9,active
PRDM6 (PR/SET domain 6),Vehicle,OCI-C5x (clear cell),2,56.9,active
PRDM6 (PR/SET domain 6),Vehicle,OCI-C5x (clear cell),3,52.9,active
PRDM6 (PR/SET domain 6),Vehicle,OCI-P5x (serous),1,48.8,active
PRDM6 (PR/SET domain 6),Vehicle,OCI-P5x (serous),2,70.8,active
PRDM6 (PR/SET domain 6),Vehicle,OCI-P5x (serous),3,140,inactive
GRK7 (G protein-coupled receptor kinase 7),Rucaparib,OCI-C5x (clear cell),1,63.5,active
GRK7 (G protein-coupled receptor kinase 7),Rucaparib,OCI-C5x (clear cell),2,64.3,active
GRK7 (G protein-coupled receptor kinase 7),Rucaparib,OCI-C5x (clear cell),3,58.3,active
GRK7 (G protein-coupled receptor kinase 7),Rucaparib,OCI-P5x (serous),1,84.7,inactive
GRK7 (G protein-coupled receptor kinase 7),Rucaparib,OCI-P5x (serous),2,78.7,active
GRK7 (G protein-coupled receptor kinase 7),Rucaparib,OCI-P5x (serous),3,72.1,active
GRK7 (G protein-coupled receptor kinase 7),Vehicle,OCI-C5x (clear cell),1,104,inactive
GRK7 (G protein-coupled receptor kinase 7),Vehicle,OCI-C5x (clear cell),2,83.8,inactive
GRK7 (G protein-coupled receptor kinase 7),Vehicle,OCI-C5x (clear cell),3,66.3,active
GRK7 (G protein-coupled receptor kinase 7),Vehicle,OCI-P5x (serous),1,73.7,active
GRK7 (G protein-coupled receptor kinase 7),Vehicle,OCI-P5x (serous),2,65.1,active
GRK7 (G protein-coupled receptor kinase 7),Vehicle,OCI-P5x (serous),3,72.8,active
SAP130 (Sin3A associated protein 130),Rucaparib,OCI-C5x (clear cell),1,22.7,active
SAP130 (Sin3A associated protein 130),Rucaparib,OCI-C5x (clear cell),2,23.6,active
SAP130 (Sin3A associated protein 130),Rucaparib,OCI-C5x (clear cell),3,22.9,active
SAP130 (Sin3A associated protein 130),Rucaparib,OCI-P5x (serous),1,45.8,active
SAP130 (Sin3A associated protein 130),Rucaparib,OCI-P5x (serous),2,70.8,active
SAP130 (Sin3A associated protein 130),Rucaparib,OCI-P5x (serous),3,52.8,active
SAP130 (Sin3A associated protein 130),Vehicle,OCI-C5x (clear cell),1,35,active
SAP130 (Sin3A associated protein 130),Vehicle,OCI-C5x (clear cell),2,21.8,active
SAP130 (Sin3A associated protein 130),Vehicle,OCI-C5x (clear cell),3,32.6,active
SAP130 (Sin3A associated protein 130),Vehicle,OCI-P5x (serous),1,69.3,active
SAP130 (Sin3A associated protein 130),Vehicle,OCI-P5x (serous),2,83.9,inactive
SAP130 (Sin3A associated protein 130),Vehicle,OCI-P5x (serous),3,88.7,inactive
PDGFRA (platelet derived growth factor receptor alpha),Rucaparib,OCI-C5x (clear cell),1,92.9,inactive
PDGFRA (platelet derived growth factor receptor alpha),Rucaparib,OCI-C5x (clear cell),2,98,inactive
PDGFRA (platelet derived growth factor receptor alpha),Rucaparib,OCI-C5x (clear cell),3,84.7,inactive
PDGFRA (platelet derived growth factor receptor alpha),Rucaparib,OCI-P5x (serous),1,111,inactive
PDGFRA (platelet derived growth factor receptor alpha),Rucaparib,OCI-P5x (serous),2,129,inactive
PDGFRA (platelet derived growth factor receptor alpha),Rucaparib,OCI-P5x (serous),3,120,inactive
PDGFRA (platelet derived growth factor receptor alpha),Vehicle,OCI-C5x (clear cell),1,102,inactive
PDGFRA (platelet derived growth factor receptor alpha),Vehicle,OCI-C5x (clear cell),2,89.9,inactive
PDGFRA (platelet derived growth factor receptor alpha),Vehicle,OCI-C5x (clear cell),3,94.3,inactive
PDGFRA (platelet derived growth factor receptor alpha),Vehicle,OCI-P5x (serous),1,137,inactive
PDGFRA (platelet derived growth factor receptor alpha),Vehicle,OCI-P5x (serous),2,139,inactive
PDGFRA (platelet derived growth factor receptor alpha),Vehicle,OCI-P5x (serous),3,119,inactive
HK1 (hexokinase 1),Rucaparib,OCI-C5x (clear cell),1,43.5,active
HK1 (hexokinase 1),Rucaparib,OCI-C5x (clear cell),2,56.9,active
HK1 (hexokinase 1),Rucaparib,OCI-C5x (clear cell),3,46.7,active
HK1 (hexokinase 1),Rucaparib,OCI-P5x (serous),1,96.4,inactive
HK1 (hexokinase 1),Rucaparib,OCI-P5x (serous),2,84.2,inactive
HK1 (hexokinase 1),Rucaparib,OCI-P5x (serous),3,82.3,inactive
HK1 (hexokinase 1),Vehicle,OCI-C5x (clear cell),1,58.5,active
HK1 (hexokinase 1),Vehicle,OCI-C5x (clear cell),2,69.4,active
HK1 (hexokinase 1),Vehicle,OCI-C5x (clear cell),3,44.6,active
HK1 (hexokinase 1),Vehicle,OCI-P5x (serous),1,81.5,inactive
HK1 (hexokinase 1),Vehicle,OCI-P5x (serous),2,83.3,inactive
HK1 (hexokinase 1),Vehicle,OCI-P5x (serous),3,60.3,active

Records listed so far whose gene name begins with T or t (12):
gene,rucaparib or vehicle,cell line,technical replicate,"viability, normalised (%)",outcome
TKFC (triokinase and FMN cyclase),Rucaparib,OCI-C5x (clear cell),1,32.1,active
TKFC (triokinase and FMN cyclase),Rucaparib,OCI-C5x (clear cell),2,23.2,active
TKFC (triokinase and FMN cyclase),Rucaparib,OCI-C5x (clear cell),3,22.2,active
TKFC (triokinase and FMN cyclase),Rucaparib,OCI-P5x (serous),1,80.2,inactive
TKFC (triokinase and FMN cyclase),Rucaparib,OCI-P5x (serous),2,63.3,active
TKFC (triokinase and FMN cyclase),Rucaparib,OCI-P5x (serous),3,70,active
TKFC (triokinase and FMN cyclase),Vehicle,OCI-C5x (clear cell),1,26.9,active
TKFC (triokinase and FMN cyclase),Vehicle,OCI-C5x (clear cell),2,25.3,active
TKFC (triokinase and FMN cyclase),Vehicle,OCI-C5x (clear cell),3,24.3,active
TKFC (triokinase and FMN cyclase),Vehicle,OCI-P5x (serous),1,67.9,active
TKFC (triokinase and FMN cyclase),Vehicle,OCI-P5x (serous),2,46.1,active
TKFC (triokinase and FMN cyclase),Vehicle,OCI-P5x (serous),3,52.4,active
